No constants are given. Whether binding was seen depends on the method and setting. Binding seen in cells or lysates may run through a third protein. Some entries that bind do so weakly or less than the wild type. Tags and fused reporters may be left off the sequences shown.
T1: HA-tagged RNF12 WT (1-600) (mouse) (UniProt Q9WTV7)
T1 sequence: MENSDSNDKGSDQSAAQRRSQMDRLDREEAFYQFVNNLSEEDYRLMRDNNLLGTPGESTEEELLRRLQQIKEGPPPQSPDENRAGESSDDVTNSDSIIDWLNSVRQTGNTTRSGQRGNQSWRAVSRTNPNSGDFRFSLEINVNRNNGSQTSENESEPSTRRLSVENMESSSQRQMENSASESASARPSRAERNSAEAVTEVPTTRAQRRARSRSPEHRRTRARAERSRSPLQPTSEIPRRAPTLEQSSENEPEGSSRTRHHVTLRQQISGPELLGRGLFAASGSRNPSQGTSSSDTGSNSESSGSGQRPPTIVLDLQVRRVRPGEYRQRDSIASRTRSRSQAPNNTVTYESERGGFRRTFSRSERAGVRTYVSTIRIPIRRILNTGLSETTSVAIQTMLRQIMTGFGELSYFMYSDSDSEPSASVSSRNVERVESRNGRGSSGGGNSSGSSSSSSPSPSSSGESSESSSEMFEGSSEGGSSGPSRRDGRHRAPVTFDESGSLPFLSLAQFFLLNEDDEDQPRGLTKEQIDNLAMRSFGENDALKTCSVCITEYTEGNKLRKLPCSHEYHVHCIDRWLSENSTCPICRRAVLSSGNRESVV

T2: HA-tagged RNF12 Δ1-206 (ΔN) (mouse) (UniProt Q9WTV7)
T2 sequence: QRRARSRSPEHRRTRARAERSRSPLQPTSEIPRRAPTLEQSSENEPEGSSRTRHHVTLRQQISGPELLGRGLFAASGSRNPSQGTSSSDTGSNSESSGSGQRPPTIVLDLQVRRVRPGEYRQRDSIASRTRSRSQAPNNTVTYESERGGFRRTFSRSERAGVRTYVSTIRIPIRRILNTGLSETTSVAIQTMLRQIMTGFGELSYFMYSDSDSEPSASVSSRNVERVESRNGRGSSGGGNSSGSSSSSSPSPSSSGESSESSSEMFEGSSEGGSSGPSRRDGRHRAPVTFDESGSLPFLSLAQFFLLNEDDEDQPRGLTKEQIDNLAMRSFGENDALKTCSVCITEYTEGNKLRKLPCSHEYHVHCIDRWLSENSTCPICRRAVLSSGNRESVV

T3: HA-tagged RNF12 Δ326-423 (ΔBR) (mouse) (UniProt Q9WTV7)
T3 sequence: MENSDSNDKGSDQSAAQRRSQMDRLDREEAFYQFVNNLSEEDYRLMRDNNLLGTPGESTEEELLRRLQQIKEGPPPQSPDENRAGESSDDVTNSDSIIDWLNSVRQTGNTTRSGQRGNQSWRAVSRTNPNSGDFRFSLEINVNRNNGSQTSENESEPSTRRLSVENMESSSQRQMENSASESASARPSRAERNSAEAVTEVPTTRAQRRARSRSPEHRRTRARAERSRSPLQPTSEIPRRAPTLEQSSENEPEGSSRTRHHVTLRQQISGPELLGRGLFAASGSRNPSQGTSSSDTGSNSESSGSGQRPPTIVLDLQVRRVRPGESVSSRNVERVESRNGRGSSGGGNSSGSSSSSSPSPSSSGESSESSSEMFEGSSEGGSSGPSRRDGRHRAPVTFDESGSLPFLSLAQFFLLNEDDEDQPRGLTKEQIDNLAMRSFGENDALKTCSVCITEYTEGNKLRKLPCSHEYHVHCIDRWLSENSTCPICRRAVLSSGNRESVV

T4: HA-tagged RNF12 Δ502-513 (ΔNES) (mouse) (UniProt Q9WTV7)
T4 sequence: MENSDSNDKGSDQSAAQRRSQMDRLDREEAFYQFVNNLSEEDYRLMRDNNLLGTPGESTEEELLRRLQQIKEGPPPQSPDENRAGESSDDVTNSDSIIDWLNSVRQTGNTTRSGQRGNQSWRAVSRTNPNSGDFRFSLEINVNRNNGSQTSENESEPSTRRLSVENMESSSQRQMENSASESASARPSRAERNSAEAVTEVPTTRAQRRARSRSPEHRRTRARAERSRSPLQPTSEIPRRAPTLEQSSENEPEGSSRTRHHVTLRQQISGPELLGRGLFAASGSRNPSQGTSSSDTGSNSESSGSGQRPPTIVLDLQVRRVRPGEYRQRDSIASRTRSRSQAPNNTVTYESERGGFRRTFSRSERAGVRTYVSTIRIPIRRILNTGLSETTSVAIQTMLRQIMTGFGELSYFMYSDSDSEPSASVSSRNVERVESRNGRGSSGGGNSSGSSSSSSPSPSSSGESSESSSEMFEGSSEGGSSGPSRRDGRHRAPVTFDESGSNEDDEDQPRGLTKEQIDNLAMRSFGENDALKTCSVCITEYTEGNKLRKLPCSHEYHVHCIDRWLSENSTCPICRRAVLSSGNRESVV

T5: HA-tagged RNF12 Δ546-587 (ΔRING) (mouse) (UniProt Q9WTV7)
T5 sequence: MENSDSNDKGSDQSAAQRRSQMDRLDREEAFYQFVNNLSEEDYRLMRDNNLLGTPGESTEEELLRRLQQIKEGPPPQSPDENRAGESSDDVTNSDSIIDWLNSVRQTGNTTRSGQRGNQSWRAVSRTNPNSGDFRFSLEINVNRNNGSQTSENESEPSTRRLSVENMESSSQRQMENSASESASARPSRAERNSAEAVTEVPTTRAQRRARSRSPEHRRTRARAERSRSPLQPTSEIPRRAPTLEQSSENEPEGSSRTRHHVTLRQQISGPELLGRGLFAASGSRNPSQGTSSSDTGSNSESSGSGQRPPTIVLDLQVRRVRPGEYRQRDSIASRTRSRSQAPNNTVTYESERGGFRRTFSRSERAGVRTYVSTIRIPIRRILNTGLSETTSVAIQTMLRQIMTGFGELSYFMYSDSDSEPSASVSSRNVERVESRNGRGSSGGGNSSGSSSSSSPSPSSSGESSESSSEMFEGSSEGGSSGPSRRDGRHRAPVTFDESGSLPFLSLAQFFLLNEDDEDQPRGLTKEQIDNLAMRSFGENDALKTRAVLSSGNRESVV


How the values were obtained:
Experiment in all cases: co-IP
[1] = molecular target: T1, HA-tagged RNF12 WT (1-600) (mouse)
[2] = molecular target: T2, HA-tagged RNF12 Δ1-206 (ΔN) (mouse)
[3] = molecular target: T3, HA-tagged RNF12 Δ326-423 (ΔBR) (mouse)
[4] = molecular target: T4, HA-tagged RNF12 Δ502-513 (ΔNES) (mouse)
[5] = molecular target: T5, HA-tagged RNF12 Δ546-587 (ΔRING) (mouse)

binding [1] | binding [2] | binding [3] | binding [4] | binding [5] | Binder
binds | binds | no binding | binds | binds | FLAG-tagged human USP26 (enzyme, UniProt Q9BXU7 1-913) MAALFLRGFVQIGNCKTGISKSKEAFIEAVERKKKDRLVLYFKSGKYSTFRLSDNIQNVVLKSYRGNQNHLHLTLQNNNGLFIEGLSSTDAEQLKIFLDRVHQNEVQPPVRPGKGGSVFSSTTQKEINKTSFHKVDEKSSSKSFEIAKGSGTGVLQRMPLLTSKLTLTCGELSENQHKKRKRMLSSSSEMNEEFLKENNSVEYKKSKADCSRCVSYNREKQLKLKELEENKKLECESSCIMNATGNPYLDDIGLLQALTEKMVLVFLLQQGYSDGYTKWDKLKLFFELFPEKICHGLPNLGNTCYMNAVLQSLLSIPSFADDLLNQSFPWGKIPLNALTMCLARLLFFKDTYNIEIKEMLLLNLKKAISAAAEIFHGNAQNDAHEFLAHCLDQLKDNMEKLNTIWKPKSEFGEDNFPKQVFADDPDTSGFSCPVITNFELELLHSIACKACGQVILKTELNNYLSINLPQRIKAHPSSIQSTFDLFFGAEELEYKCAKCEHKTSVGVHSFSRLPRILIVHLKRYSLNEFCALKKNDQEVIISKYLKVSSHCNEGTRPPLPLSEDGEITDFQLLKVIRKMTSGNISVSWPATKESKDILAPHIGSDKESEQKKGQTVFKGASRRQQQKYLGKNSKPNELESVYSGDRAFIEKEPLAHLMTYLEDTSLCQFHKAGGKPASSPGTPLSKVDFQTVPENPKRKKYVKTSKFVAFDRIINPTKDLYEDKNIRIPERFQKVSEQTQQCDGMRICEQAPQQALPQSFPKPGTQGHTKNLLRPTKLNLQKSNRNSLLALGSNKNPRNKDILDKIKSKAKETKRNDDKGDHTYRLISVVSHLGKTLKSGHYICDAYDFEKQIWFTYDDMRVLGIQEAQMQEDRRCTGYIFFYMHNEIFEEMLKREENAQLNSKEVEETLQKE
– | – | no binding | – | – | HA-tagged RNF12 Δ326-423 (ΔBR) (protein, UniProt Q9WTV7) MENSDSNDKGSDQSAAQRRSQMDRLDREEAFYQFVNNLSEEDYRLMRDNNLLGTPGESTEEELLRRLQQIKEGPPPQSPDENRAGESSDDVTNSDSIIDWLNSVRQTGNTTRSGQRGNQSWRAVSRTNPNSGDFRFSLEINVNRNNGSQTSENESEPSTRRLSVENMESSSQRQMENSASESASARPSRAERNSAEAVTEVPTTRAQRRARSRSPEHRRTRARAERSRSPLQPTSEIPRRAPTLEQSSENEPEGSSRTRHHVTLRQQISGPELLGRGLFAASGSRNPSQGTSSSDTGSNSESSGSGQRPPTIVLDLQVRRVRPGESVSSRNVERVESRNGRGSSGGGNSSGSSSSSSPSPSSSGESSESSSEMFEGSSEGGSSGPSRRDGRHRAPVTFDESGSLPFLSLAQFFLLNEDDEDQPRGLTKEQIDNLAMRSFGENDALKTCSVCITEYTEGNKLRKLPCSHEYHVHCIDRWLSENSTCPICRRAVLSSGNRESVV
binds | – | – | – | – | HA-tagged RNF12 WT (1-600) (protein, UniProt Q9WTV7 1-600) MENSDSNDKGSDQSAAQRRSQMDRLDREEAFYQFVNNLSEEDYRLMRDNNLLGTPGESTEEELLRRLQQIKEGPPPQSPDENRAGESSDDVTNSDSIIDWLNSVRQTGNTTRSGQRGNQSWRAVSRTNPNSGDFRFSLEINVNRNNGSQTSENESEPSTRRLSVENMESSSQRQMENSASESASARPSRAERNSAEAVTEVPTTRAQRRARSRSPEHRRTRARAERSRSPLQPTSEIPRRAPTLEQSSENEPEGSSRTRHHVTLRQQISGPELLGRGLFAASGSRNPSQGTSSSDTGSNSESSGSGQRPPTIVLDLQVRRVRPGEYRQRDSIASRTRSRSQAPNNTVTYESERGGFRRTFSRSERAGVRTYVSTIRIPIRRILNTGLSETTSVAIQTMLRQIMTGFGELSYFMYSDSDSEPSASVSSRNVERVESRNGRGSSGGGNSSGSSSSSSPSPSSSGESSESSSEMFEGSSEGGSSGPSRRDGRHRAPVTFDESGSLPFLSLAQFFLLNEDDEDQPRGLTKEQIDNLAMRSFGENDALKTCSVCITEYTEGNKLRKLPCSHEYHVHCIDRWLSENSTCPICRRAVLSSGNRESVV
